# Tests used:
# UM-UC-3 cells = assay: CellTiter-Glo viability and CalcuSyn synergy, PRMT5 inhibitor + sotorasib, 6 days; assay type: cell-based; conditions: Compound B 0.2916 μM + sotorasib 0.5 μM
# Description: Bladder cancer cell lines (UM-UC-3) were treated with the combination of PRMT5 inhibitor (i.e., Compound B) and sotorasib for 6 days. […] Raw luminescent values were converted to fraction affected (Fa) with the following equation: […]
# Synergy analysis was performed using the CalcuSyn software to determine CI scores based on the drug concentrations used and corresponding Fa values. Results are shown in Table 6 below. *CI Values (Calcusyn): Strong Synergism: 0.1-0.3; Synergism: 0.3-0.7; Moderate Synergism: 0.7-0.85; Slight Synergism: 0.85-0.9; Nearly Additive: 0.9-1.1.
# MIAPACA2 cells = conditions: 150 nM Compound B + 50 nM sotorasib, over 8 days
compound,measurement,setting,value
Cc1cc2cc(C(=O)N(Cc3ccc(C(F)(F)F)cn3)[C@@H](C)c3ncccn3)ccc2nc1N [Compound B],Combination Fa,UM-UC-3 cells,0.7953
same,Computed CI value,UM-UC-3 cells,0.958
same,cell counts,MIAPACA2 cells,significantly reduced pancreatic cancer (MIAPACA2) cell counts

# Reference: patent US20260373156A1, “CANCER TREATMENTS USING MTA-COOPERATIVE PRMT5 INHIBITORS” (AMGEN INC., priority 2022, published 2026)
